Measurements as given in US20240000885A1 (VANDERBILT UNIVERSITY, published 2024).
For at least one compound, name, drawing or mass did not settle the structure.

Amino acid sequences for entries named in this document (tags omitted). A change or cut given only in a name is not applied to a line headed by its entry. Residues count along the entry.
UniProt P03415: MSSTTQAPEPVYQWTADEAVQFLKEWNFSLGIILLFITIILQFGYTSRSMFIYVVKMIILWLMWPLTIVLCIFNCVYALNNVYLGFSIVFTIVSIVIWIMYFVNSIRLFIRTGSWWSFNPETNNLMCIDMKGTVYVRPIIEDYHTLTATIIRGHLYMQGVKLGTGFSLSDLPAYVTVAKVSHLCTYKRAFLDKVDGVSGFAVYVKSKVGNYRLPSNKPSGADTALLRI
UniProt Q9ULV0, 902-1848: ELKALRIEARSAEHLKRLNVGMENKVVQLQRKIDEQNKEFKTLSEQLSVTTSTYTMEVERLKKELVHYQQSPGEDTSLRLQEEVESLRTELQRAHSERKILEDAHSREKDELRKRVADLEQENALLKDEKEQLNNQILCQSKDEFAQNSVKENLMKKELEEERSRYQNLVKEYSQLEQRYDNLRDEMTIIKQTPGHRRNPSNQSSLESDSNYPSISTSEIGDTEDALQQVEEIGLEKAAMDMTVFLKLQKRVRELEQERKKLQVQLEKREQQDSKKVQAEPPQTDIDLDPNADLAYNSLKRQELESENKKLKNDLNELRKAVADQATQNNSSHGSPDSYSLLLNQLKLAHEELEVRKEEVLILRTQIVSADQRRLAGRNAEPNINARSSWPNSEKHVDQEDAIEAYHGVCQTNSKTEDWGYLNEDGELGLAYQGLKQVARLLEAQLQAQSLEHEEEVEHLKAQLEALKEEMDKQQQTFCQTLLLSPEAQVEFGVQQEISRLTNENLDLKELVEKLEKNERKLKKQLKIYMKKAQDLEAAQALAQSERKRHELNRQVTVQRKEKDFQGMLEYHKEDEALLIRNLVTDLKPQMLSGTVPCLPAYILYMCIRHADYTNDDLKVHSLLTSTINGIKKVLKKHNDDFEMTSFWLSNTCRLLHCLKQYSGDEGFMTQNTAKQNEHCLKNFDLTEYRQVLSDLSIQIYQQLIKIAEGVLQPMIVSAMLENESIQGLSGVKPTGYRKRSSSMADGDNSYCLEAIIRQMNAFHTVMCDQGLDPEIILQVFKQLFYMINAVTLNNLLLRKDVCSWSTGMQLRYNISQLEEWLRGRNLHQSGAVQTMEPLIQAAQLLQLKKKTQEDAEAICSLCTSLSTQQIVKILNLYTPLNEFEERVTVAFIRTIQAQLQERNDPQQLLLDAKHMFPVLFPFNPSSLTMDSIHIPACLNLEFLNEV

Target: interaction of MHV M-GFP with Cherry-MYO5B+D tail (902T) in A549 cells (UniProt P03415+Q9ULV0)
Type: cell-based, human

For `CNC(=C[N+](=O)[O-])NCCSCc1ccc(CN(C)C)o1` [Ranitidine], the “effect on the co-localization of MHV M with MYO5B+D” value was “no effect”.
